Here are results for 2 molecules from publication PMC8018780, “Two peptides targeting endothelial receptors are internalized into murine brain endothelial cells” (PLoS ONE, 2021).

These are yes or no findings as the source states them, for the method shown. Binding calls can cover weak binding; strength is not graded here.

Assay [1] deals with low-density lipoprotein receptor-related protein 1 (LRP-1), human (human). Nature of the assay: SPR; Biacore 3000, CM5 chip, receptors immobilised by EDC/NHS coupling (TfR 58 fmol/mm^2, LRP-1 0.025 fmol/mm^2); peptides injected at 0.25-4 uM, 5 uL/min, 25°C, 10 mM HEPES, 150 mM NaCl, 1.5 mM CaCl2, 1 mM EGTA, 0.005% Tween 20, pH 7.4; Langmuir 1:1 model, global fit; both purified.

In assay [2] the target is recombinant mouse transferrin receptor (TfR) protein (mouse) (UniProt Q62351). The description is as above.

On to FRCLVENRGDVPFVTRIR (C-terminal amide) [MTfp (peptide 1), peptide derived from melanotransferrin], for which the binding entry in assay [1] and in assay [2] was “binds” throughout.

For the molecule GYRPVHNIRGHWAPGK (C-terminal amide) [GYR (peptide 2)], the binding entry in assay [1] was “binds”.
